# Data published in PMC7819943, “Rice protein-binding microarrays: a tool to detect cis-acting elements near promoter regions in rice”.
# The chains behind the UniProt entries cited, without tags or fusion partners.
# UniProt Q0JBA9, entry or part of it: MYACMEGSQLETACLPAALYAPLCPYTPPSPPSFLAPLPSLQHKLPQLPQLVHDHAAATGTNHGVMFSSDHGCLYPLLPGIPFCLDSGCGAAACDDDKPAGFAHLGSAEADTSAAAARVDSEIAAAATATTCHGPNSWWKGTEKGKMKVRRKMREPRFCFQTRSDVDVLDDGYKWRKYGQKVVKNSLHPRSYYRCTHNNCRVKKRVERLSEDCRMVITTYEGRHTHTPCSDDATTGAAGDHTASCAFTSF
# The list shows a part of the results.
# Molecular target: OsWRKY34 (Oryza sativa, UniProt Q0JBA9 1-250)
# Assay: protein-binding microarray (RPBM); PBS, 2% BSA, 51.3 ng/ul salmon testes DNA, 50 uM zinc acetate, 200 nM TF, 25 C, 1 h; high values mean tight binding
# Details: protein: recombinant; tags: N-terminal polyhistidine and DsRed monomer fusion (pET32a); label: CyDye5-dUTP incorporated in the synthesized complementary strand; 3' TTTTT single-stranded linker to array surface; dsDNA, one strand shown
# Outline: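 Transcription factors were made in E. coli BL21-CodonPlus as N-terminal fusions to a polyhistidine tag and DsRed, then purified on Ni–NTA. After primer extension with Cy5-dUTP and blocking with 2% BSA, a custom Agilent array was exposed for 1 h at 25 °C to 200 nM protein in PBS, 2% BSA, salmon testes DNA and 50 µM zinc acetate. Washed arrays were scanned on an Axon 4000B, and the binding signal is per-feature fluorescence intensity in arbitrary units.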
row,Sequence,binding signal
1,CACTCTCTCCCTCTCCCGCCGCCGCCGTCTCGCGCCGCCACGGAGTCACCTAGTGCAG,9340 fluorescence intensity (a.u.)
2,TTGTCCTCAGCCGGCAGTGTAGGTTCCGGGAGGGCGGGGTCGGAGTCACCTAGTGCAG,19300 fluorescence intensity (a.u.)
3,CGCCATCCGCTCGCGATCCGGGCGTCCGGGCACACGCGGCCGGAGTCACCTAGTGCAG,8220 fluorescence intensity (a.u.)
4,GTGGTTGGTGTTCCATTTTCTTGTTTTCCTACTTGATGCTCGGAGTCACCTAGTGCAG,9730 fluorescence intensity (a.u.)
5,AAGTTCGAGGCCGCACTTTTGTTGTGTTTGTGTGTGTGCACGGAGTCACCTAGTGCAG,8300 fluorescence intensity (a.u.)
6,AAACTAACAGTCTCATCTTTTCACTTATACTCATGTTTATCGGAGTCACCTAGTGCAG,9720 fluorescence intensity (a.u.)
7,GACGCCGTGGTGACCATGGCGCCGGTCAGGGGAGGGAGAGCGGAGTCACCTAGTGCAG,8840 fluorescence intensity (a.u.)
8,CCGCGATCTGTTTCGTCCAGCTTAATTTGTTGCTGTTCTGCGGAGTCACCTAGTGCAG,11300 fluorescence intensity (a.u.)
9,TAAGTGCATTTGTGGATTTCCGTATCCAATGTTTGACCGTCGGAGTCACCTAGTGCAG,9020 fluorescence intensity (a.u.)
10,GGTGGCGGCCGCTCCCGCCGCGCCCCGGCGACGTCGCCGACGGAGTCACCTAGTGCAG,8080 fluorescence intensity (a.u.)
11,GCCCCATCGGTATCACGGTTTTGTCTGTTGGCTTCTTTTGCGGAGTCACCTAGTGCAG,8640 fluorescence intensity (a.u.)
12,GTACTCGGCACCAATCACGTTGGCACCGGCCTCCTTCGCACGGAGTCACCTAGTGCAG,8670 fluorescence intensity (a.u.)
13,CTTAACATCGTTAGCTGCAGTCTTAGCTATTCTAATTCTACGGAGTCACCTAGTGCAG,9140 fluorescence intensity (a.u.)
14,TTTGATCACTCAGGCTGATTATTTTTGCTGTTAGGGTATACGGAGTCACCTAGTGCAG,8100 fluorescence intensity (a.u.)
15,GCTCGATTTCGTCGTGTGTTCTTCTCCGTCTCCGATGACTCGGAGTCACCTAGTGCAG,11000 fluorescence intensity (a.u.)
16,GCCCACCGCCAATCACTCATCCAAGTATCCAACAAAGAACCGGAGTCACCTAGTGCAG,8450 fluorescence intensity (a.u.)
17,AAAACCTCGCATTCTAACGTTACTTTATGTCTATCTTTTTCGGAGTCACCTAGTGCAG,11100 fluorescence intensity (a.u.)
18,GATTTGATTTTAGGCTTCTTTCTACCTTGGTTTTTCATCCCGGAGTCACCTAGTGCAG,8700 fluorescence intensity (a.u.)
19,TTATATTGTTAACGTTTCTTGATGTTTTTTAAGTTTTTGACGGAGTCACCTAGTGCAG,8320 fluorescence intensity (a.u.)
20,ATCGGAGACTGACTGAGTGAAGGTTGGTTGGTTCACACTTCGGAGTCACCTAGTGCAG,8750 fluorescence intensity (a.u.)
21,ATCGTTGGGGTAGTTTATTAAGCAGTATAGGGTTAGATACCGGAGTCACCTAGTGCAG,8900 fluorescence intensity (a.u.)

# Taken from above:
# Entry of GCCCCATCGGTATCACGGTTTTGTCTGTTGGCTTCTTTTGCGGAGTCACCTAGTGCAG under binding signal: 8640 fluorescence intensity (a.u.)
# Entry of GCCCACCGCCAATCACTCATCCAAGTATCCAACAAAGAACCGGAGTCACCTAGTGCAG under binding signal: 8450 fluorescence intensity (a.u.)
# Entry of AAACTAACAGTCTCATCTTTTCACTTATACTCATGTTTATCGGAGTCACCTAGTGCAG under binding signal: 9720 fluorescence intensity (a.u.)

# Continued.

row,Sequence,binding signal
1,CCCGACAGCGCCGCCTCCATTCCTCTAAAGTCTAAACCTACGGAGTCACCTAGTGCAG,9790 fluorescence intensity (a.u.)
2,CTAACATTGATTGGGAGCATTATTTACTACTACCCTCTTTCGGAGTCACCTAGTGCAG,8250 fluorescence intensity (a.u.)
3,CATGATGAAAAATTTTAGGGTGGGATCTAAACAGGGCCTTCGGAGTCACCTAGTGCAG,8860 fluorescence intensity (a.u.)
4,ACCATCCCTACCCGCCCTATGCCGTTACCACCATAGTTCCCGGAGTCACCTAGTGCAG,15100 fluorescence intensity (a.u.)
5,CAATAGAATGCACTTTTGGTTAATGTTTACTCCTAATTTCCGGAGTCACCTAGTGCAG,8390 fluorescence intensity (a.u.)
6,TTTTGCATTAATTTGATCAAAGCAGTTGTATTGTTGTGAACGGAGTCACCTAGTGCAG,9600 fluorescence intensity (a.u.)
7,GCGGCGTTGCGGATGGGGACGGGGACGGGGACGGCGGCGACGGAGTCACCTAGTGCAG,10400 fluorescence intensity (a.u.)
8,CGTTACCGTATTCGCGCCGGTTCGTTTTCGCTCCGTTTTCCGGAGTCACCTAGTGCAG,8760 fluorescence intensity (a.u.)
9,AACGCCGCCACCTTCTAGTCGTATTTTTTTTTCAGAATTCCGGAGTCACCTAGTGCAG,9150 fluorescence intensity (a.u.)
10,TGACCTGATCAGATGAGCTTATCATTTCCCGCACGGTTCACGGAGTCACCTAGTGCAG,8790 fluorescence intensity (a.u.)
11,TCGCTGCTCTGCCTCGTCGCCTCACGCCGCCGCCGCCGGCCGGAGTCACCTAGTGCAG,8620 fluorescence intensity (a.u.)
12,ATCATCTTTTTTCTATTGTTGGTACATGTTCTTATATATTCGGAGTCACCTAGTGCAG,13100 fluorescence intensity (a.u.)
13,GCTCCTCCCCACAGCTGTCGTCGCGTCAACCCATTATCCTCGGAGTCACCTAGTGCAG,8110 fluorescence intensity (a.u.)
14,TACAAATTCACTGACTGGCTGTTCCTTTGCCTGGATTATACGGAGTCACCTAGTGCAG,9150 fluorescence intensity (a.u.)
15,GCTTTGTGCGCGGGGCGTCTCGTTTGTCTTTGCCGTTTCGCGGAGTCACCTAGTGCAG,8170 fluorescence intensity (a.u.)
16,ATCCTCTATAGCCGTGTTTAGTTGCAAAATTTTTCTTCAACGGAGTCACCTAGTGCAG,12100 fluorescence intensity (a.u.)
17,TCCGCTCGTTCCTCTCCCGACGAGGGTGGGTGGGGTGGGGCGGAGTCACCTAGTGCAG,22700 fluorescence intensity (a.u.)
18,AGTCCGACTTTTCCTTTTTTTTTTCCGTGTTTTCCGTTTCCGGAGTCACCTAGTGCAG,14800 fluorescence intensity (a.u.)
19,CACTGTTGGAACATTGGATTTCATGTCGCTGTCAATGGCTCGGAGTCACCTAGTGCAG,9000 fluorescence intensity (a.u.)
20,CGTTGATTACAGGCACGCGCTGCCATTTCCTATAAATACACGGAGTCACCTAGTGCAG,8060 fluorescence intensity (a.u.)
21,TATATTAAGCATCTTATCGTTTGACCACACAACATATACGCGGAGTCACCTAGTGCAG,9500 fluorescence intensity (a.u.)
